Reference: PMC12376730
No constants are given. Whether binding was seen depends on the method and setting. Binding can be weak; no strength is given.

Molecular target: T1, HrpB4 (Xanthomonas euvesicatoria) (UniProt Q56783)
T1 sequence: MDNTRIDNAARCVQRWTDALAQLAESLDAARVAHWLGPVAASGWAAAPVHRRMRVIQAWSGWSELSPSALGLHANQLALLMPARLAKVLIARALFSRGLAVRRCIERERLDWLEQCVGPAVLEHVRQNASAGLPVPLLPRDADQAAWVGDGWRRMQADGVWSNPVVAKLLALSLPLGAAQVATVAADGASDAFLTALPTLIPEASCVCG
Assay: two-hybrid; BACTH (bacterial adenylate cyclase-based two-hybrid): T18 and T25 fusions co-expressed in E. coli reporter strain DHM1; cultures spotted on LB indicator plates with X-gal and 2 mM IPTG, five to six days at room temperature in the dark; blue colonies show interaction; each fusion tested against the T25 or T18 domain alone

With “HrcQATG (the annotated HrcQ protein, which lacks the N-terminal 30 amino acids) (Xanthomonas euvesicatoria)” the binding was “binds weakly”.
